# Reference: PMC12040169 (PLOS Biology, 2025)
# Some of the results follow.
# System: T1, CTL2-GFP (C. trachomatis L2/434/Bu, GFP-expressing)
# T1 construct: L2/434/Bu, GFP-expressing
# Parameters: species or system HeLa; Intracellular C. trachomatis growth in HeLa cells, bulk GFP fluorescence relative to DMSO
# Settings: bulk GFP, single well; 28.5 h, 10 µM; inhibitor
row,SMILES,% of control remaining [%]
1,CCCC(=O)Nc1ccccc1OC1CCNCC1 [CBK045902T],81.6865
2,O=C(Nc1ccnn1Cc1ccccc1)C1CC(c2cccc(F)c2)=NO1 (stereo not drawn) [CBK297772],114.177
3,COc1ccc(-c2cn3ccnc3c(Nc3ccc(N4CCOCC4)cc3)n2)cc1 [CBK066265],149.934
4,COC(=O)Cn1c(C(C)(C)C)cn2c3c(=O)n(C)c(=O)n(C)c3nc12 [CBK307555],149.999
5,CCOC(=O)c1ccc(NC(=O)N2CCC3(CC2)NC(=O)Cc2ccccc23)cc1 [CBK047362],109.095
6,CC(C)C1CC(CCNCc2ccc(N(C)C)cc2)(c2ccccc2)CCO1 (stereo not drawn) [CBK266210],135.575
7,O=C(Cc1cccc2ccccc12)NC(NC(=S)Nc1ccccc1Br)C(Cl)(Cl)Cl (stereo not drawn) [CBK261094],92.2744
8,c1ccc2cc(-c3cn4ccnc4c(N4CCN(c5ccncc5)CC4)n3)ccc2c1 [CBK066369],115.076
9,CN(C)C(=O)CN1CCC2(CC1)CN(S(C)(=O)=O)c1ccccc12 [CBK126686],116.035
10,CC(=O)N1CCC(C(=O)NC(=O)Nc2cccc(C)c2)CC1 [CBK034854],115.084
11,O=C(Nc1cccnc1N1CCNCC1)c1ccccn1 [CBK029425T],97.6623
12,CCOC(=O)N1CCN(Cc2ccc(OCc3nccn3C)cc2)CC1 [CBK305413],84.7756
13,CC1CCN(C(=O)c2cccc(Cn3cc(Br)cn3)c2)CC1 [CBK058482],131.866
14,O=C(NCCn1nc2c(cc1=O)CCCCC2)c1cccs1 [CBK283277],111.232
15,CCN1C(=O)C2(CC(=O)N(CCCN(C)C(=O)c3ccco3)C2=O)c2cc(C)ccc21 (stereo not drawn) [CBK075141],87.9514
16,CC(O)C(=O)NS(=O)(=O)c1ccccc1 (stereo not drawn) [CBK038300],118.554
17,Cc1ccc(S(=O)(=O)CC(=O)N2CCCC3(CCN(C(=O)c4cc(F)c(F)cc4F)C3)C2)cc1 (stereo not drawn) [CBK131558],100.089
18,CC(C)N(C(=O)Cn1c(C(F)F)cc2cccnc21)C(C)C [CBK285009],136.622
19,Cc1cnoc1-c1cc(Br)cc(Br)c1O [CBK012420],116.938
20,CCN(CC(=O)NCc1ccc(F)cc1)S(=O)(=O)c1ccccc1C#N [CBK305842],99.3953
21,CC(=O)Nc1cccc(NC(=O)CCCC(=O)O)c1 [CBK261598],100
22,COc1ccc(/C=N/NC(=O)c2ccc(CN3CCOCC3)cc2)cc1[N+](=O)[O-] [CBK262708],141.071
23,Cc1nnc(SCCn2c(N3CC(C)CC(C)C3)nc3c2c(=O)n(C)c(=O)n3C)s1 (stereo not drawn) [CBK269419],97.4039
24,Cc1ccc(N(Cc2ccc(C(=O)N(C)Cc3ccccc3)cc2)S(C)(=O)=O)cc1C [CBK263795],117.749
25,N#CC(N)c1c(Cl)cccc1Cl (stereo not drawn) [CBK008288C],138.757
26,Nc1ncnc(NCCCn2ccnc2)c1[N+](=O)[O-] [CBK267312],137.784

row,SMILES,% of control remaining [%]
1,O=C1CC(c2ccccc2)c2c(n3ccsc3nc2=O)N1 (stereo not drawn) [CBK287923],136.954
2,Cc1nn(C)c(C)c1NC(=O)COc1ccc2c(c1)CCCC2=O [CBK304963],82.5877
3,O=S(=O)(CCN1CCC2(CC1)CN(CCO)c1ccccc12)c1ccccc1 [CBK126758],65.0069
4,COc1ccc2[nH]cc(CCNC(=O)C3CC(=O)c4ccccc43)c2c1 (stereo not drawn) [CBK116221],110.16
5,Cc1cc(C)cc(-c2ccc(CC3(C(=O)NC(C)CO)CCOCC3)cc2)c1 (stereo not drawn) [CBK286523],92.0454
6,COc1ccc(-n2c(C)c([N+](=O)[O-])c3ccc(O)c(CNCCCO)c32)cc1 [CBK263504C],100
7,CC(C)(c1ccccc1)c1ccc(OCCNCCN)cc1 [CBK265102],113.166
8,O=C(c1cccnc1)N1CCC(c2cc3ccccc3cn2)CC1 [CBK284891],89.9583
9,C[C@@H](Cn1nnc2ccccc21)NC(=O)Cc1cccs1 [CBK282312],123.255
10,CC(=O)c1ccc(-c2nc(NS(C)(=O)=O)cc3cccnc23)cc1 [CBK061874],87.1592
11,COc1cc(C)c(Nc2cc(-c3ccc4c(c3)OCO4)ncn2)cc1OC [CBK037711],163.651
12,O=C(NCc1ccco1)c1cc(-c2ccc(Cl)cc2)cnc1N1CCOCC1 [CBK076352],121.28
13,O=C(NCCn1nc(-c2ccco2)ccc1=O)c1ccccc1F [CBK283742],145.491
14,CC(C)(C)c1cn2c3ccccc3nc2n1CCO [CBK273412],128.912
15,COc1ccc(C2c3cc(OC)c(OC)cc3CC(=O)N2c2ccc(C(=O)O)cc2)cc1 (stereo not drawn) [CBK296074],144.572
16,OCC(CNc1ncnc2nc[nH]c12)Cc1ccccn1 (stereo not drawn) [CBK304412],162.164
17,O=S(=O)(CCc1ccccn1)N1CCC(Cc2ccccc2)CC1 [CBK043632],87.8066
18,COc1ccc(CN2CCN(Cc3cccnc3)CC2)cc1OC [CBK074409G],126.573
19,Cc1cc(NC(=O)N(Cc2cnn(C)c2)CC(C)C)ccc1F [CBK304206],50.9856
20,CCOC(=O)c1c(NC(=O)CSc2ncnc3sc(C)c(C)c23)sc(C)c1C [CBK266440],102.94
21,NCc1ccc(OC2CCNCC2)cc1 [CBK003920T],117.632
22,CCn1c2ccccc2c2cc(C(N)=O)c(N)nc21 [CBK019787],144.096
23,CCNC(=O)c1c(O)c2ccccc2[nH]c1=O [CBK262450],143.192
24,Cc1ccc(-c2oncc2C(=O)N2CCC(n3c(=O)[nH]c4ccccc43)CC2)cc1 [CBK149180],77.514
25,Cc1ccc(S(=O)(=O)c2cncc(N3CCNCC3)n2)cc1 [CBK051166C],91.4429

# Reformatted with bars between the fields: 2 of the compounds above
row | SMILES | % of control remaining [%]
8 | O=C(c1cccnc1)N1CCC(c2cc3ccccc3cn2)CC1 [CBK284891] | 89.9583
24 | Cc1ccc(-c2oncc2C(=O)N2CCC(n3c(=O)[nH]c4ccccc43)CC2)cc1 [CBK149180] | 77.514
